Assay results published in US9206188B2, “Substituted pyrrolo[2,3-b]pyridines as ITK and JAK inhibitors” (Arrien Pharmaceuticals LLC, priority 2013, dated 2015).

Legend:
[1] = test system: IL-2 release from CD4+ T cells; test: IL-2 release from CD4+ T cells using HTRF; format: cell-based; details: read-out: inhibition of IL-2 release from CD4+ T cells
[2] = test system: IL-4/STAT6; test: SelectScreen cell-based pathway profiling, IL-4/STAT6, STAT6-bla RA1, IL-4 stimulated; details: STAT6-bla RA1 cells, IL-4 stim, 10-point titration

## C[C@@H]1CCN(C(=O)CC#N)C[C@@H]1N(C)c1ncnc2[nH]ccc12 [Tofacitinib]
[1]
  IC50: 1200 nM
[2]
  IC50: 61 nM
